Measured values as given in article PMC4673164.
No constants are given. Whether binding was seen depends on the method and setting. Binding seen in cells or lysates may run through a third protein. Some results given as binding are weak or reduced against the parent protein; the word gives no strength.

Chains of the proteins cited; added tags and fusions are not shown.
UniProt P15056: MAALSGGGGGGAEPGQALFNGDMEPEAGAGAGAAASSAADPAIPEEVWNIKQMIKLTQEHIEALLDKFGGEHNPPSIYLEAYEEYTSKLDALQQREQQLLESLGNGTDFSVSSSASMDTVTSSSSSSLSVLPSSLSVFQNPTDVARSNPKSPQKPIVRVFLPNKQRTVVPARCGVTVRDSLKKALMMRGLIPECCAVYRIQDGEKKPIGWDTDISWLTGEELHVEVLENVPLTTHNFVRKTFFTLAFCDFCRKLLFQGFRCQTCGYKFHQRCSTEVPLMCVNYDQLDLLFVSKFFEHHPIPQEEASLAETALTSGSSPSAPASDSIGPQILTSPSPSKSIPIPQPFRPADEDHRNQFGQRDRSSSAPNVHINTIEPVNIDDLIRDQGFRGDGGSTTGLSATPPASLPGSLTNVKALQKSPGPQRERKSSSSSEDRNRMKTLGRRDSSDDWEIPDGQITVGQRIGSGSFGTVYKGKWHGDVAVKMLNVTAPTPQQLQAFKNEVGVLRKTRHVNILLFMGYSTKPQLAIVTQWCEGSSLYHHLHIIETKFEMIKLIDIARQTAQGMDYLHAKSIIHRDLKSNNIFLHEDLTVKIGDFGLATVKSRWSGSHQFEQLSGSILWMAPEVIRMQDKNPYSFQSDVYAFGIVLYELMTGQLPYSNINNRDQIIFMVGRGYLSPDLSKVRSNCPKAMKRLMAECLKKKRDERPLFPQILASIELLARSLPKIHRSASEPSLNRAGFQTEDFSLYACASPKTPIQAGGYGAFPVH

Target: T1, TRAP1 (human) (UniProt Q12931)
T1 sequence: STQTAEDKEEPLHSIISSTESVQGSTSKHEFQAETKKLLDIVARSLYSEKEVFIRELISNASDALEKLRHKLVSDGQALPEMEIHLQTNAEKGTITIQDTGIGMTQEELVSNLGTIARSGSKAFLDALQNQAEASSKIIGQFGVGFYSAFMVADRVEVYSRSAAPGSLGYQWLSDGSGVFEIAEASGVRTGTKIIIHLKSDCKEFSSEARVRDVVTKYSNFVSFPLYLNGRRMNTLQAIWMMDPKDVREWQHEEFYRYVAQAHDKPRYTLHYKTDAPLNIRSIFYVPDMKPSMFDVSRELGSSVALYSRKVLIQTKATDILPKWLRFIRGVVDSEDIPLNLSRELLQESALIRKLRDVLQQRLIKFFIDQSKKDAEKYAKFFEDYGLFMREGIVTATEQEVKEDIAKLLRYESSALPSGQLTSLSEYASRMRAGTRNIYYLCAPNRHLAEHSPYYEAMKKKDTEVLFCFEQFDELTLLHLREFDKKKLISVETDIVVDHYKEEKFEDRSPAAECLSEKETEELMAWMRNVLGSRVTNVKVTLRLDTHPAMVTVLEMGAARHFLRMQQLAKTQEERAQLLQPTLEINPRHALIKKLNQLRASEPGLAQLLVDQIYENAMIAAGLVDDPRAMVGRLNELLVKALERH
Experiment: co-IP; total lysates of MCF7 cells co-transfected with TRAP1 and BRAF; immunoprecipitated with anti-TRAP1, immunoblotted; 18 h at 4°C, protein A/G-agarose, washed twice in lysis buffer

BRAF wild type (BRAF-myc) (from UniProt P15056 1-766)
binding: binds
